T/C data for 7 molecules are collected here from PubChem BioAssay AID328 (DTP/NCI, 2004).

Molecules are shown by their SMILES. The list does not hold the whole screen: it gathers some chemical classes. Other doses and runs of a compound may be missing. T/C: endpoint of the treated group in % of that of the vehicle group. Where survival is the endpoint, this PubChem deposit counts one and a half times the control or more as active, and values a quarter to a half above the control carry no call in these data; other NCI protocols may use other cut-offs. Some T/C values are marked as having no survivor count here; that says nothing about deaths at the dose. Schedule codes are those of the source, taken here to give the interval after Q, in days (D) or hours (H), and the number of doses after X. Marks such as (2×) count equal records among those shown. Some entries were tested several times; the results are listed from low to high.

The test system of this test is BDF1 mice, P388 leukemia ip, median survival T/C. The experiment in a line: NCI In Vivo Anticancer Drug Screen. Data for tumor model P388 Leukemia (intraperitoneal) in B6D2F1 (BDF1) mice. The following applies: T/C endpoint: median survival time, higher T/C = longer survival. An outline of the steps:
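Mice carrying the transplantable tumour receive compound or vehicle. Survival is followed in each arm, and the treated measure is divided by the vehicle measure.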

[1] abbreviates: dose: 12.5 mg/kg/injection, schedule: Q04DX003 (ip), vehicle: saline with Tween-80.

Regarding `O=C(O)CCOc1cccc(N(CCCl)CCCl)c1`, the T/C was 86 % of control [survivor count not shown] (dose: 4.8 mg/kg/injection, schedule: Q01DX009 (ip), vehicle: Klucel (hydroxypropylcellulose) (HPC)); 100 % of control [survivor count not shown] (dose: 7.2 mg/kg/injection, schedule: Q01DX009 (ip), vehicle: Klucel (hydroxypropylcellulose) (HPC)); 144 % of control [survivor count not shown] (dose: 11.0 mg/kg/injection, schedule: Q01DX009 (ip), vehicle: Klucel (hydroxypropylcellulose) (HPC)); 116 % of control [survivor count not shown] (dose: 11.0 mg/kg/injection, schedule: Q04DX003 (ip), vehicle: Klucel (hydroxypropylcellulose) (HPC)); 200 % of control [survivor count not shown] (dose: 16.0 mg/kg/injection, schedule: Q01DX009 (ip), vehicle: Klucel (hydroxypropylcellulose) (HPC)); 91 % of control [survivor count not shown] (dose: 16.0 mg/kg/injection, schedule: Q04DX003 (ip), vehicle: Klucel (hydroxypropylcellulose) (HPC)). For the same molecule, the T/C (dose: 25.0 mg/kg/injection, schedule: Q01DX009 (ip), vehicle: Klucel (hydroxypropylcellulose) (HPC)) was 190 % of control [survivor count not shown]; the T/C (dose: 33.0 mg/kg/injection, schedule: Q04DX003 (ip), vehicle: Klucel (hydroxypropylcellulose) (HPC)) is 140 [survivor count not shown] and 185 % of control [survivor count not shown]; the T/C (dose: 50.0 mg/kg/injection, schedule: Q01DX009 (ip), vehicle: Klucel (hydroxypropylcellulose) (HPC)) is 230 % of control [survivor count not shown]; the T/C (dose: 50.0 mg/kg/injection, schedule: Q04DX003 (ip), vehicle: Klucel (hydroxypropylcellulose) (HPC)) was 150 [survivor count not shown] and 220 % of control [survivor count not shown]; the T/C (dose: 75.0 mg/kg/injection, schedule: Q04DX003 (ip), vehicle: Klucel (hydroxypropylcellulose) (HPC)) is 90 [survivor count not shown] and 240 % of control [survivor count not shown].
Regarding `O=C(O)CCOc1ccccc1N(CCCl)CCCl`, the T/C reads like this: (dose: 6.25 mg/kg/injection, schedule: Q01DX009 (ip), vehicle: saline with Tween-80) 145 % of control [survivor count not shown]; (dose: 8.0 mg/kg/injection, schedule: Q01DX009 (ip), vehicle: saline) 157 % of control [survivor count not shown]; (dose: 12.0 mg/kg/injection, schedule: Q01DX009 (ip), vehicle: saline) 146 % of control [survivor count not shown]; (dose: 12.5 mg/kg/injection, schedule: Q01DX009 (ip), vehicle: saline with Tween-80) 181 % of control [survivor count not shown]; (dose: 18.0 mg/kg/injection, schedule: Q01DX009 (ip), vehicle: saline) 150 % of control [survivor count not shown]; (dose: 25.0 mg/kg/injection, schedule: Q01DX009 (ip), vehicle: saline with Tween-80) 177 % of control [survivor count not shown].
With `Cc1nc(-c2ccc(N(CCCl)CCCl)cc2)cs1`, the T/C (dose: 132.0 mg/kg/injection, schedule: Q01DX009 (ip), vehicle: saline with Tween-80) was 91 % of control [survivor count not shown]; the T/C (dose: 200.0 mg/kg/injection, schedule: Q01DX009 (ip), vehicle: saline with Tween-80) was 108 % of control [survivor count not shown]; the T/C (dose: 300.0 mg/kg/injection, schedule: Q01DX009 (ip), vehicle: saline with Tween-80) was 125 % of control [survivor count not shown].
For the molecule `C[N+](CCCl)(CCCl)Cc1ccc([N+](=O)[O-])cc1`, the T/C was 95 % of control [survivor count not shown] (dose: 0.25 mg/kg/injection, schedule: Q04DX003 (ip), vehicle: saline); 105 % of control [survivor count not shown] (dose: 0.5 mg/kg/injection, schedule: Q04DX003 (ip), vehicle: saline); 110 % of control [survivor count not shown] (dose: 1.0 mg/kg/injection, schedule: Q04DX003 (ip), vehicle: saline); 109 % of control [survivor count not shown] (dose: 3.13 mg/kg/injection, schedule: Q04DX003 (ip), vehicle: saline with Tween-80); 113 % of control [survivor count not shown] (dose: 6.25 mg/kg/injection, schedule: Q04DX003 (ip), vehicle: saline with Tween-80); 145 % of control [survivor count not shown] under setting [1]. Besides, where the note is “dose: 100.0 mg/kg/injection, schedule: Q04DX003 (ip), vehicle: saline with Tween-80”, the T/C is 136 % of control [survivor count not shown].
For `O=C(O)CN(CCCl)CCCl`, the T/C by setting is: (dose: 0.31 mg/kg/injection, schedule: Q01DX010 (ip), vehicle: saline) 127 % of control [survivor count not shown] (2×); (dose: 0.62 mg/kg/injection, schedule: Q01DX010 (ip), vehicle: saline) 145 [survivor count not shown] and 154 % of control [survivor count not shown]; (dose: 0.63 mg/kg/injection, schedule: Q01DX010 (ip), vehicle: saline) 195 [survivor count not shown] and 200 % of control [survivor count not shown]; (dose: 1.25 mg/kg/injection, schedule: Q01DX010 (ip), vehicle: saline) 145 [survivor count not shown], 159 [survivor count not shown], 200 [survivor count not shown], 205 % of control [survivor count not shown]; (dose: 2.5 mg/kg/injection, schedule: Q01DX010 (ip), vehicle: saline) 204 [survivor count not shown], 215 [survivor count not shown] (2×), 254 % of control [survivor count not shown]; (dose: 5.0 mg/kg/injection, schedule: Q01DX010 (ip), vehicle: saline) 130 [survivor count not shown], 213 [survivor count not shown], 231 % of control [survivor count not shown].
For `NN(CCCl)CCCl`, the T/C (dose: 8.0 mg/kg/injection, schedule: Q04DX003 (ip), vehicle: saline with Tween-80) is 145 % of control [survivor count not shown]; the T/C (dose: 8.25 mg/kg/injection, schedule: Q04DX003 (ip), vehicle: saline with Tween-80) was 154 % of control [survivor count not shown]; the T/C (dose: 12.0 mg/kg/injection, schedule: Q04DX003 (ip), vehicle: saline with Tween-80) was 240 % of control [survivor count not shown]; the T/C under setting [1] is 236 % of control [survivor count not shown]; the T/C (dose: 18.0 mg/kg/injection, schedule: Q04DX003 (ip), vehicle: saline with Tween-80) was 272 % of control [survivor count not shown]; the T/C (dose: 18.75 mg/kg/injection, schedule: Q04DX003 (ip), vehicle: saline with Tween-80) is 272 % of control [survivor count not shown].
Turning to `S=P(Cl)(Cl)Cl`, the T/C (dose: 12.5 mg/kg/injection, schedule: Q04DX003 (ip), vehicle: saline) was 109 % of control [survivor count not shown]; the T/C (dose: 25.0 mg/kg/injection, schedule: Q04DX003 (ip), vehicle: saline) was 109 % of control [survivor count not shown]; the T/C (dose: 50.0 mg/kg/injection, schedule: Q04DX003 (ip), vehicle: saline) is 109 % of control [survivor count not shown].
